PubChem BioAssay AID743454 – Peter MacCallum Cancer Centre – 2014

- Screen: 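Search for knock-downs that restore vorinostat killing in resistant colon cancer cells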 (primary screen)
- System: human HCT116-VR colon cancer cells, selected for vorinostat resistance
- Reagent: siRNA pool against human genes, 40 nM siRNA pool
- Time to read-out: vorinostat for 24 h, read-out about 72 h after transfection
- Conditions: vorinostat at 2.5 µM final
- Measurement: 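Two measures, CellTiter-Fluor viability and luminescent caspase 3/7 activity, each as fold change against same-plate mock wells, mean of duplicates, then screen-wide robust z-score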
- Scale: viability robust z-score: higher = more viable cells than screen typical; caspase robust z-score: higher = more caspase 3/7 activity than screen typical
- Active means: 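Hits are knock-downs in viability class RV1/RV2 or caspase class CA1/CA2, excluding ones that killed cells in the no-drug cell-count arm; hits then retested with single siRNAs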
Shown is one part, drawn at random, of about 18,000 reagents. 450 of them (2.5%) were called active. 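Single biological run; no consistent viability z cut-off exists, so the class columns, not z-scores, define the calls.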 Reagent sequences are not shown.

VGLL3
- viability hit class: no change
- caspase hit class: no change
- viability robust z-score: -0.48
- caspase robust z-score: -0.84
- Call: inactive

FSHB
- viability hit class: no change
- caspase hit class: no change
- viability robust z-score: 0.02
- caspase robust z-score: 0.9
- Call: inactive

GET4
- viability hit class: no change
- caspase hit class: no change
- viability robust z-score: -0.26
- caspase robust z-score: 3.44
- Call: inactive

OR10H5
- viability hit class: no change
- caspase hit class: no change
- viability robust z-score: 0.33
- caspase robust z-score: 1.31
- Call: inactive

ANKRD27
- viability hit class: no change
- caspase hit class: no change
- viability robust z-score: 1.81
- caspase robust z-score: 1.44
- Call: inactive

OTX1
- viability hit class: no change
- caspase hit class: no change
- viability robust z-score: 0.82
- caspase robust z-score: 1.38
- Call: inactive

TOMM40L
- viability hit class: no change
- caspase hit class: no change
- viability robust z-score: -0.51
- caspase robust z-score: -0.79
- Call: inactive

HAAO
- viability hit class: no change
- caspase hit class: no change
- viability robust z-score: 0.88
- caspase robust z-score: -0.73
- Call: inactive

Continued; the last 3 above are carried over.
OTX1
- viability hit class: no change
- caspase hit class: no change
- viability robust z-score: 0.82
- caspase robust z-score: 1.38
- Call: inactive

TOMM40L
- viability hit class: no change
- caspase hit class: no change
- viability robust z-score: -0.51
- caspase robust z-score: -0.79
- Call: inactive

HAAO
- viability hit class: no change
- caspase hit class: no change
- viability robust z-score: 0.88
- caspase robust z-score: -0.73
- Call: inactive

PROCR
- viability hit class: no change
- caspase hit class: no change
- viability robust z-score: 0.12
- caspase robust z-score: -0.38
- Call: inactive

TYK2
- viability hit class: no change
- caspase hit class: no change
- viability robust z-score: -2.06
- caspase robust z-score: 3.19
- Call: inactive

ADAMTSL1
- viability hit class: no change
- caspase hit class: no change
- viability robust z-score: -0.02
- caspase robust z-score: 0.21
- Call: inactive

SLC26A7
- viability hit class: no change
- caspase hit class: no change
- viability robust z-score: 0.94
- caspase robust z-score: -1.01
- Call: inactive

LOC728919 (retired record)
- viability hit class: no change
- caspase hit class: no change
- viability robust z-score: -0.78
- caspase robust z-score: 3.7
- Call: inactive

HTATIP2
- viability hit class: no change
- caspase hit class: no change
- viability robust z-score: -0.12
- caspase robust z-score: 0.2
- Call: inactive

ZNF436
- viability hit class: no change
- caspase hit class: no change
- viability robust z-score: -0.42
- caspase robust z-score: -0.72
- Call: inactive

CNKSR3
- viability hit class: no change
- caspase hit class: no change
- viability robust z-score: 0.31
- caspase robust z-score: 0.78
- Call: inactive

CTSA
- viability hit class: no change
- caspase hit class: no change
- viability robust z-score: -1.07
- caspase robust z-score: 1.81
- Call: inactive

UBQLNL
- viability hit class: no change
- caspase hit class: no change
- viability robust z-score: 1.04
- caspase robust z-score: 0.48
- Call: inactive

TPR
- viability hit class: no change
- caspase hit class: no change
- viability robust z-score: -0.1
- caspase robust z-score: 3.14
- Call: inactive

ANKRD50
- viability hit class: no change
- caspase hit class: no change
- viability robust z-score: -0.7
- caspase robust z-score: 5
- Call: inactive

SIM1
- viability hit class: no change
- caspase hit class: no change
- viability robust z-score: 0.58
- caspase robust z-score: 1.52
- Call: inactive
